The other results are listed elsewhere or left out.
Legend:
Assay in all cases: log2 fold change, soluble protein after heating vs DMSO (PISA); higher = thermal stabilisation; K562 cells, 10 uM, 30 min; active = over 0.2 and 3.5 SD of the protein, either way, in both replicates (recomputed)
erlotinib = compound: C#Cc1cccc(Nc2ncnc3cc(OCCOC)c(OCCOC)cc23)c1 [erlotinib]
In short: (§1)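 Quantification of soluble protein used TMTpro 16plex LC-MS/MS, with channel sums equalised. Samples were the supernatant after 21,000xg for 90 min of pooled aliquots from K562 cells (2×10^6 cells/mL) treated with 10 μM compound for 30 min, heated for 3 min over 48°C-58°C, and extracted in PBS with 0.5% NP-40 at 4°C. Values, from duplicates, describe thermal stability against control samples on a log2 fold-change scale.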

By UniProt entry, the sequences of proteins in these tests, tags left out. Where a name states a change or a piece, a line headed by the entry shows the natural chain unless it says otherwise.
UniProt Q9NR22, whole entry, looked up: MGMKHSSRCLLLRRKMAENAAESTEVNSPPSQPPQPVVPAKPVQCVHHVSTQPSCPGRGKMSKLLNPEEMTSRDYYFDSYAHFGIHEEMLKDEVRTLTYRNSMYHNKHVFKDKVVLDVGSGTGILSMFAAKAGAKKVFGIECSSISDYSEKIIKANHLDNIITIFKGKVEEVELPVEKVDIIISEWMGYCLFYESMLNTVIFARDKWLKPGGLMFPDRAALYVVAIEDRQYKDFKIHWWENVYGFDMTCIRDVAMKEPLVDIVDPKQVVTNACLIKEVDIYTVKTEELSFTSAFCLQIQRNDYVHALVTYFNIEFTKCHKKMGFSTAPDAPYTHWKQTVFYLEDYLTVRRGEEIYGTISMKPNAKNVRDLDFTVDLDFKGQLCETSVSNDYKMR
UniProt P14222: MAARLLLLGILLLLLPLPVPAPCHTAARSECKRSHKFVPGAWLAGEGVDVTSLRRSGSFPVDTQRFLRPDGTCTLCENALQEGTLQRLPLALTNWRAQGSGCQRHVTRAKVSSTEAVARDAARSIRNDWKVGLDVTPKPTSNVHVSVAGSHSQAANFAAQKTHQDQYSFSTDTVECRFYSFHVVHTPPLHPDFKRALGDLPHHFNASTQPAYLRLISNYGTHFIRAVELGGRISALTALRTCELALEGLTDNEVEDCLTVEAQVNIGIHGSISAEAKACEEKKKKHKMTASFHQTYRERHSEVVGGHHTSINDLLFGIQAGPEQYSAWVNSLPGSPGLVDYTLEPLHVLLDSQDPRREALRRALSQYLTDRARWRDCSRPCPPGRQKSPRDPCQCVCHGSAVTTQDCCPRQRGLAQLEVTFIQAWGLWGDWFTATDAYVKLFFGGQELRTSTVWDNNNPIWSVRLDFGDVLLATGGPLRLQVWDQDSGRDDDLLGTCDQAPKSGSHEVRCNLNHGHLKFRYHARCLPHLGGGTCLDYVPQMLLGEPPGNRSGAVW
UniProt P49643: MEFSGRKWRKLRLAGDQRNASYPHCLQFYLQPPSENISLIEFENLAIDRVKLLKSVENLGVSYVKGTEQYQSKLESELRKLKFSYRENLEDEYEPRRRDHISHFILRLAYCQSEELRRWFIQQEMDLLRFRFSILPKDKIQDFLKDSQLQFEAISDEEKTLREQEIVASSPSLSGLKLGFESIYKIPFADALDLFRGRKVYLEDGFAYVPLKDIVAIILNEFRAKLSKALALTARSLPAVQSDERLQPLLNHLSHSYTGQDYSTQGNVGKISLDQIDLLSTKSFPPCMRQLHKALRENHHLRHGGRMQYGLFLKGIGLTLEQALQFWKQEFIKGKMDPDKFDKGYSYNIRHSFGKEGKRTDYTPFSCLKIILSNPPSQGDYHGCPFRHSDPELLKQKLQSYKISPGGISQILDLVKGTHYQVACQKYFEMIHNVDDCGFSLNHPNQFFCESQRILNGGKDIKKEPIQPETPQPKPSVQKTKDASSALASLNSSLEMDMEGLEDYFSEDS
UniProt Q9UNN8: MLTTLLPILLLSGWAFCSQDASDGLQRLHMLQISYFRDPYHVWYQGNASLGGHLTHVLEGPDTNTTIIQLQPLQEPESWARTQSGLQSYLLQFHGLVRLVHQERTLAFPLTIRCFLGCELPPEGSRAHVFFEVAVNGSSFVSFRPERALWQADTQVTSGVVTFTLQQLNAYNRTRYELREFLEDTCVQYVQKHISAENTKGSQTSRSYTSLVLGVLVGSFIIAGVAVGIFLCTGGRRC
UniProt Q04759: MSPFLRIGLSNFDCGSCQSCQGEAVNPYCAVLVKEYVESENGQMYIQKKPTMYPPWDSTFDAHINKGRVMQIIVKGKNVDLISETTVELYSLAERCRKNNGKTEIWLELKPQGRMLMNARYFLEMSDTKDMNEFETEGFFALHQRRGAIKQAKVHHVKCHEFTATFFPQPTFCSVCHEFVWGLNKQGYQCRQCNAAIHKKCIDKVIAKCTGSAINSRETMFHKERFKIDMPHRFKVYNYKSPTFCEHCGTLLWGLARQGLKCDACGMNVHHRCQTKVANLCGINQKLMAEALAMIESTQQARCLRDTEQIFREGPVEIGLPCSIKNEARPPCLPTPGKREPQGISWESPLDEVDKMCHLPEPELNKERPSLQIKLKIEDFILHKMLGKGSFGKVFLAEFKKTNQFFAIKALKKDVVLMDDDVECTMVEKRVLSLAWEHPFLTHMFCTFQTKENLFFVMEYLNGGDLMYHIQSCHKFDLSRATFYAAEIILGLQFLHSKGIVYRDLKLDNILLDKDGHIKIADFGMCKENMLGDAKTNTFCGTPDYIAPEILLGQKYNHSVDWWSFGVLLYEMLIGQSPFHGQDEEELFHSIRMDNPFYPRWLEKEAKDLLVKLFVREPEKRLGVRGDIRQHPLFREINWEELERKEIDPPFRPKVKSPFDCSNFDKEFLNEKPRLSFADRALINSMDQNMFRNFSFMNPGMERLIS
UniProt Q13362, whole entry, looked up: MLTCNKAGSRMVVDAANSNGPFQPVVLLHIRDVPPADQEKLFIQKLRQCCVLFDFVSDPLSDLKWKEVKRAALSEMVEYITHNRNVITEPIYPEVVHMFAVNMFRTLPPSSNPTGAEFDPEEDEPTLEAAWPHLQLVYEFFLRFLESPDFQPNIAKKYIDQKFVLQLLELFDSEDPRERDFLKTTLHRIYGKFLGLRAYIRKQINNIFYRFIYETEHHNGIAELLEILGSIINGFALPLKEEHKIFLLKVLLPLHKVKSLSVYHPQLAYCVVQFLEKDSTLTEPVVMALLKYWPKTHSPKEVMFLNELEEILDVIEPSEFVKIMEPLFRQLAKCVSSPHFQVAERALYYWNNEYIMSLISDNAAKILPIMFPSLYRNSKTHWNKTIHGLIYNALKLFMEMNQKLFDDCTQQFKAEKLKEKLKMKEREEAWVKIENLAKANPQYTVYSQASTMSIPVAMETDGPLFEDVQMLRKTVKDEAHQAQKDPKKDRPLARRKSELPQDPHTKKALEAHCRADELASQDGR

[1] = compound: C/C(=N\NC(=O)C1=CC(=CC=C1)S(=O)(=O)N2CCOCC2)/C3=C(C=CC(=C3)Cl)O
In short: as §1

[2] = compound: C1=CC(=C(C=C1Cl)C2=NC3=NC=CN=C3C(=N2)NC4=CC=NC=C4)F
In short: as §1

[3] = compound: C1=CC(=CC=C1C2=NC3=C(N2)C=C(C=C3)C(=O)N)OC4=CC=C(C=C4)Cl
In short: as §1

[4] = compound: C1=CC2=C(C=CC(=C2)/C=C\3/C(=O)NC(=NCC4=CC=CS4)S3)N=C1
In short: as §1

[5] = compound: C1=CC2=NC=CN=C2C=C1/C=C/3\C(=O)NC(=O)S3
In short: as §1

[6] = compound: C1=CC=C(C=C1)C2=NC(=C(N2)C3=CC=NC=C3)C4=CC(=C(C=C4)Cl)O
In short: as §1

[7] = compound: C1=CC=C2C(=C1)C3=NNC4=CC=CC(=C43)C2=O
In short: as §1

[8] = compound: C1CCN(C1)C(=O)NC2=CC=CC(=C2)NC3=NC=C(C(=N3)NCCC4=CN=CN4)Br
In short: as §1

[9] = compound: C1CN(CCC1(CC2=CC=C(C=C2)Cl)N)C3=NC=NC4=C3C=CN4
In short: as §1

IRAK-1-4 Inhibitor I = compound: C1COCCN1CCN2C3=CC=CC=C3N=C2NC(=O)C4=CC(=CC=C4)[N+](=O)[O-] [IRAK-1-4 Inhibitor I]
In short: as §1

ibrutinib = compound: C=CC(=O)N1CCC[C@@H](n2nc(-c3ccc(Oc4ccccc4)cc3)c3c(N)ncnc32)C1 [ibrutinib]
In short: as §1

[10] = compound: CC(=O)c1cnc2ccc(-c3cc(Cl)c(O)c(Cl)c3)nc2c1N[C@H]1CC[C@H](CN(C)C)CC1
In short: as §1

ralimetinib = compound: CC(C)(C)Cn1c(N)nc2ccc(-c3[nH]c(C(C)(C)C)nc3-c3ccc(F)cc3)nc21 [ralimetinib]
In short: as §1

[11] = compound: CC(C)(O)CC(=O)NCCn1ccc2ncnc(Nc3ccc(Oc4cccc(C(F)(F)F)c4)c(Cl)c3)c21
In short: as §1

[12] = compound: CC(C)C1=C2N=C(C=C(N2N=C1)NCC3=CC=CC=C3)NCCCCCCN
In short: as §1

[13] = compound: CC(C)C[C@@H](C=O)NC(=O)[C@H](CC(C)C)NC(=O)[C@H](CC(C)C)NC(=O)OCc1ccccc1
In short: as §1

pinometostat = compound: CC(C)N(C[C@H]1O[C@@H](n2cnc3c(N)ncnc32)[C@H](O)[C@@H]1O)[C@H]1C[C@@H](CCc2nc3cc(C(C)(C)C)ccc3[nH]2)C1 [pinometostat]
In short: as §1

[14] = compound: CC1=C(C2=C(C=C1)C(=O)C3=CC=CC=C3N2CCCN)C
In short: as §1

[15] = compound: CC1=C(C(CC(=O)N1)C2=CC=C(C=C2)C(F)(F)F)C(=O)NC3=C(C=C4C(=C3)C=NN4)F
In short: as §1

Row | Target | log2 fold change (erlotinib) | log2 fold change [1] | log2 fold change [2] | log2 fold change [3] | log2 fold change [4] | log2 fold change [5] | log2 fold change [6] | log2 fold change [7] | log2 fold change [8] | log2 fold change [9] | log2 fold change (IRAK-1-4 Inhibitor I) | log2 fold change (ibrutinib) | log2 fold change [10] | log2 fold change (ralimetinib) | log2 fold change [11] | log2 fold change [12] | log2 fold change [13] | log2 fold change (pinometostat) | log2 fold change [14] | log2 fold change [15]
1 | PRMT8 (UniProt Q9NR22) | inactive: -0.008 | inactive: 0.03 | inactive: 0.159 | inactive: -0.067 | inactive: 0.099 | inactive: -0.005 | inactive: 0.122 | inactive: 0.042 | inactive: 0.012 | inactive: 0.028 | inactive: 0.045 | inactive: -0.004 | inactive: -0.012 | inactive: 0.098 | inactive: -0.014 | inactive: 0.001 | inactive: -0.073 | inactive: 0.026 | inactive: 0.101 | –
2 | PRF1 (UniProt P14222) | inactive: 0.111 | – | inactive: -0.152 | inactive: 0.042 | – | inactive: -0.137 | – | – | – | – | – | inactive: 0.013 | – | – | inactive: -0.109 | inactive: 0.061 | – | – | – | –
3 | PRIM2 (UniProt P49643) | inactive: 0.004 | inactive: 0.038 | inactive: 0.018 | inactive: 0.015 | inactive: 0.061 | inactive: 0.009 | inactive: 0.035 | inactive: 0.035 | inactive: -0.023 | inactive: -0.071 | inactive: -0.043 | inactive: -0.04 | inactive: -0.065 | inactive: -0.058 | inactive: -0.265 | inactive: -0.213 | inactive: 0.074 | inactive: 0.005 | inactive: 0.059 | –
4 | PROCR (UniProt Q9UNN8) | inactive: -0.036 | inactive: 0.033 | inactive: 0.082 | inactive: 0.025 | inactive: -0.04 | inactive: 0.001 | – | inactive: -0.436 | inactive: -0.041 | inactive: 0.072 | inactive: 0.014 | inactive: -0.011 | inactive: 0.151 | – | inactive: -0.115 | inactive: -0.003 | – | inactive: -0.143 | inactive: 0.113 | inactive: -0.029
5 | PRKCQ (UniProt Q04759) | inactive: 0.036 | inactive: 0.047 | inactive: 0.024 | inactive: 0.03 | inactive: 0.093 | inactive: 0.012 | inactive: 0.012 | inactive: -0.008 | inactive: -0.007 | inactive: -0.061 | inactive: 0.004 | inactive: -0.026 | active: -2.02 | inactive: -0.02 | inactive: -0.037 | inactive: -0.103 | inactive: -0.011 | inactive: 0.028 | inactive: 0.018 | –
6 | PPP2R5C isoform 5 (UniProt Q13362) | inactive: 0.028 | inactive: 0.021 | inactive: 0.015 | inactive: -0.014 | inactive: 0.009 | inactive: -0.036 | inactive: 0.004 | inactive: 0.047 | inactive: -0.018 | inactive: -0.002 | inactive: -0.023 | inactive: 0.041 | inactive: -0.059 | inactive: -0.044 | inactive: -0.072 | inactive: -0.061 | inactive: 0.031 | inactive: 0.011 | inactive: -0.018 | –
